Construct, isoform or probe ends are uncertain for at least one entry.
Tested on: His6-MrpC + FruA-DBD-His8
Assay: EMSA
Conditions: appeared cooperative; probe letters rebuilt from the primers and the genome

CCAAGCTTGCTCACGTTGCAGACGGGGTGAGCCTTTGGGGCAATACAGGGTTCAAAGTGAGACGATTGCATGCATCAGCGAACGTTGACGAGCGCTGGTCCTCG (double strand) [dev promoter fragment]
binding result: binds
